The list shows a part of the results.

By UniProt entry, the sequences of proteins in these tests, tags left out. Where a name states a change or a piece, a line headed by the entry shows the natural chain unless it says otherwise.
UniProt P13196: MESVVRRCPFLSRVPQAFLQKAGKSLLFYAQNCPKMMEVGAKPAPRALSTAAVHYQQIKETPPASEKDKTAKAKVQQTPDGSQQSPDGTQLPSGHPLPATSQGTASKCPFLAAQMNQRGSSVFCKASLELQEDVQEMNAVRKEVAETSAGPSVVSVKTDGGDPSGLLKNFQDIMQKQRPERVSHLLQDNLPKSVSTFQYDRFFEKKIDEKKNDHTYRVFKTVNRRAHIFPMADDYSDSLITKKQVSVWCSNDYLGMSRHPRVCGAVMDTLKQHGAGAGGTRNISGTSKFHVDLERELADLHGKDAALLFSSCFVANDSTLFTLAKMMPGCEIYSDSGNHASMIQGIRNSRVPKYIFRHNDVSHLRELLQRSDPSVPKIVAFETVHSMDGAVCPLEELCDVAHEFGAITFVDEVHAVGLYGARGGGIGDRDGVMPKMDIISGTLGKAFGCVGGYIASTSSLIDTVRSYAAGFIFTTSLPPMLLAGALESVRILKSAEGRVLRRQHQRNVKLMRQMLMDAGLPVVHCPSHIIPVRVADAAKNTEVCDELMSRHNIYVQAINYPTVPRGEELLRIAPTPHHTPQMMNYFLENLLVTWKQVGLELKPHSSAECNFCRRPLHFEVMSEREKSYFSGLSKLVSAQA
UniProt Q9C0C7: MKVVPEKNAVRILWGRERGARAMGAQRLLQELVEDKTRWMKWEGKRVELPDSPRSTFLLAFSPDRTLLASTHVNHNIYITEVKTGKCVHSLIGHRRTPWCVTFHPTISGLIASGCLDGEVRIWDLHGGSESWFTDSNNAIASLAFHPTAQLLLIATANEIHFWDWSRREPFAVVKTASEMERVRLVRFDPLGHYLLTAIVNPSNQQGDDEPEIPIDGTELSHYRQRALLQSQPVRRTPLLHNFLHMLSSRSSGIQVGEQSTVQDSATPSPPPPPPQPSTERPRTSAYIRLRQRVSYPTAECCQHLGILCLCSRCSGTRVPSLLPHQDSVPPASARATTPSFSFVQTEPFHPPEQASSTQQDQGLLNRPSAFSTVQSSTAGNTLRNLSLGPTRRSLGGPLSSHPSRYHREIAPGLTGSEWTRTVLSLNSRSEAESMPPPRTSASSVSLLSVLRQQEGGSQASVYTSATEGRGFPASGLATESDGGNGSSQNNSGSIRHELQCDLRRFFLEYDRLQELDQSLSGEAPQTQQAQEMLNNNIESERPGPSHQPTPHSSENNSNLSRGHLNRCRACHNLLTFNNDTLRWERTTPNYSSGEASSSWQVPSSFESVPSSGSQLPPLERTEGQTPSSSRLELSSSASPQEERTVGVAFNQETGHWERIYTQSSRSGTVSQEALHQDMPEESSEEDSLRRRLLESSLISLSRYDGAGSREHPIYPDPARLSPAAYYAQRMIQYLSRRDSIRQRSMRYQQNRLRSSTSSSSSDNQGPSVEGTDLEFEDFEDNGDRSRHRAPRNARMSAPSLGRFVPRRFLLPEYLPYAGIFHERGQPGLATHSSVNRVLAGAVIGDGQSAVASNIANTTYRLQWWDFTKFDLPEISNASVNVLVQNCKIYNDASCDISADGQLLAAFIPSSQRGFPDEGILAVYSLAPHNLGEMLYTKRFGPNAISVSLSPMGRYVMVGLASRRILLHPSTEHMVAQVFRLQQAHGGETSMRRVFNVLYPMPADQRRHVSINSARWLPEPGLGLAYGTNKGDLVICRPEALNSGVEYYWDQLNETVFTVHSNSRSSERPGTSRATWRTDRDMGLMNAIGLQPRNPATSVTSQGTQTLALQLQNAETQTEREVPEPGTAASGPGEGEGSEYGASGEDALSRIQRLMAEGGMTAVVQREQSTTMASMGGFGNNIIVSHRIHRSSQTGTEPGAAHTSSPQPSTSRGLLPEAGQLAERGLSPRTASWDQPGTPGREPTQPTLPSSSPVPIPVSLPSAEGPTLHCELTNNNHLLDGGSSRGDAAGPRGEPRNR
UniProt Q2TAA5: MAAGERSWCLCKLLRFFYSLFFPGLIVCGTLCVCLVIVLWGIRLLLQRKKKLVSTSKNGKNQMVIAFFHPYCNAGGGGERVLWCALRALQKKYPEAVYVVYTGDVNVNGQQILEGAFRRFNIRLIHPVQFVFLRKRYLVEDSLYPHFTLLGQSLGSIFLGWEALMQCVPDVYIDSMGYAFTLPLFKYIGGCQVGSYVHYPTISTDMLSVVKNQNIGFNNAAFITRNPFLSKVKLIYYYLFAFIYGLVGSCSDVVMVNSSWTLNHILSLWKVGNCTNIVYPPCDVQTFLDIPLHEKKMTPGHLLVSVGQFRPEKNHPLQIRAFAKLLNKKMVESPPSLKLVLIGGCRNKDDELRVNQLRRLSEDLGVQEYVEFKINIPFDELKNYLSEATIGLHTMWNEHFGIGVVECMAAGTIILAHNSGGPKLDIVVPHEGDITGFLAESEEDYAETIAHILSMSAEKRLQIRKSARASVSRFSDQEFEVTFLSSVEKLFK
UniProt Q8N6D5: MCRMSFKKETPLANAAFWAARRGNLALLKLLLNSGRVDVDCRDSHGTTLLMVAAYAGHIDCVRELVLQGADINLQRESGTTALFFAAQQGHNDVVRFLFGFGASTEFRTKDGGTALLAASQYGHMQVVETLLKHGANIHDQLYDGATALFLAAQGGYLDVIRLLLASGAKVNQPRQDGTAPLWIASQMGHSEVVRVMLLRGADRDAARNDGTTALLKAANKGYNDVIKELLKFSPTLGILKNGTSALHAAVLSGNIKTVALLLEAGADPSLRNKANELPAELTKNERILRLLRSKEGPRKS
UniProt Q8IWZ3: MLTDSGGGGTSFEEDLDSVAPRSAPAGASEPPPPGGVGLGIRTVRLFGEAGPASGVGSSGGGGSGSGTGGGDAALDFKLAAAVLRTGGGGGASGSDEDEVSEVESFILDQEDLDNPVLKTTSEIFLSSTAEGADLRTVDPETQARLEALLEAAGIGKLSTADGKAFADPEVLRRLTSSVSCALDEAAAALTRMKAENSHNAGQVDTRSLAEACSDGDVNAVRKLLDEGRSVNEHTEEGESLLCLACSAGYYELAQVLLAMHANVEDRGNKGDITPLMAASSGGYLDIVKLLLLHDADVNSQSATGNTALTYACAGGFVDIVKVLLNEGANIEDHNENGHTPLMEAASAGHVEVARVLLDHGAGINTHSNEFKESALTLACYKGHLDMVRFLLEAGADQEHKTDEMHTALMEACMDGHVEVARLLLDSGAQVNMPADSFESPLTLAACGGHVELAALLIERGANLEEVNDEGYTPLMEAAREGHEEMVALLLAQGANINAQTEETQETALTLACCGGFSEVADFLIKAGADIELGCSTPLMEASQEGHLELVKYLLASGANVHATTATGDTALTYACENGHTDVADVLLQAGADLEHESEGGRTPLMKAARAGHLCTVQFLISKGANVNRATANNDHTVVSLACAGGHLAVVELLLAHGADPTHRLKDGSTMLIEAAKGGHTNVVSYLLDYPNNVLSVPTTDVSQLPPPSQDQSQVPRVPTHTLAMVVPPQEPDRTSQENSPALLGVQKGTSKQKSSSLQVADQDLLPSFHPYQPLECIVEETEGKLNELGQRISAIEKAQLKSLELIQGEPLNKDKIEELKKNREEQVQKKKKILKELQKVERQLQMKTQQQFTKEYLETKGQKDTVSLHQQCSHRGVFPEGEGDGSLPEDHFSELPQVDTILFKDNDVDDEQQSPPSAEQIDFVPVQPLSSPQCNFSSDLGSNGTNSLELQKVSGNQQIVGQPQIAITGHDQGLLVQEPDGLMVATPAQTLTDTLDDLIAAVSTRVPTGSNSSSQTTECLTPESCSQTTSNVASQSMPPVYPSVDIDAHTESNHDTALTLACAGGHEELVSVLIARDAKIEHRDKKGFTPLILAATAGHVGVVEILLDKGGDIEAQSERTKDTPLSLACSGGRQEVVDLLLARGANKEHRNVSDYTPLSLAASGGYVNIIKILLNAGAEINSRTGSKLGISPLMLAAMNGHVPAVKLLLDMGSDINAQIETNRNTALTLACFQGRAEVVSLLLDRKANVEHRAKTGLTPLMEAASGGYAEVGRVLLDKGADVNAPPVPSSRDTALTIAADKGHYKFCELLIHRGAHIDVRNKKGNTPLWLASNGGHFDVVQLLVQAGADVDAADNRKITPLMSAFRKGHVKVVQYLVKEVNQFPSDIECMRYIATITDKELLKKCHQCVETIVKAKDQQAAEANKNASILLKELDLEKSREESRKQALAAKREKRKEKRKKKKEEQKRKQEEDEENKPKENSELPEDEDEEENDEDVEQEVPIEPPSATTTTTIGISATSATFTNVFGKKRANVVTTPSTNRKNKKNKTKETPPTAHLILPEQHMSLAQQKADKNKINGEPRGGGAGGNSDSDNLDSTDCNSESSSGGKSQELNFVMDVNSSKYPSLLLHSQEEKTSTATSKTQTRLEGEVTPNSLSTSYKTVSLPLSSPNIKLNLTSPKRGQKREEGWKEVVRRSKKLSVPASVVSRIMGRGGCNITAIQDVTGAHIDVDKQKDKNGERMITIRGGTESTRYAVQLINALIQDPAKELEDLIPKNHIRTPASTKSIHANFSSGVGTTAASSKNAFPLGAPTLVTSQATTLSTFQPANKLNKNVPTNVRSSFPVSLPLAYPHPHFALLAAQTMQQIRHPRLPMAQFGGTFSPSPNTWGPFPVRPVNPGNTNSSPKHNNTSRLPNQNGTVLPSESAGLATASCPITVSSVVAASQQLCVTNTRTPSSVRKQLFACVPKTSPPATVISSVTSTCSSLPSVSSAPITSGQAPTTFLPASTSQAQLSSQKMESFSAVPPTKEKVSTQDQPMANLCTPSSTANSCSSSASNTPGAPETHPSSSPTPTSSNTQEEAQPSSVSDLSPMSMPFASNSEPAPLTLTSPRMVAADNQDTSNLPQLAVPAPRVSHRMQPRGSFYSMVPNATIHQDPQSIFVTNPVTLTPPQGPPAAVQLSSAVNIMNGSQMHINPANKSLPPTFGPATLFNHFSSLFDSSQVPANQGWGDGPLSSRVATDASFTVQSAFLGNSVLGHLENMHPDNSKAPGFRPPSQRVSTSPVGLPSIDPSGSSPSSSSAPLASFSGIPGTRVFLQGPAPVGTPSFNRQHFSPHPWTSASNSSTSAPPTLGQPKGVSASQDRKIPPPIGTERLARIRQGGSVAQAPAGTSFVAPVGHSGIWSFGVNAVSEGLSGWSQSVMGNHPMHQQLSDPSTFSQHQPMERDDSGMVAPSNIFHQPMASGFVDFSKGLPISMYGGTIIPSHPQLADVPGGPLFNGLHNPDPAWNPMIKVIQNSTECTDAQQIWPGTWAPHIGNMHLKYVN
UniProt O00189: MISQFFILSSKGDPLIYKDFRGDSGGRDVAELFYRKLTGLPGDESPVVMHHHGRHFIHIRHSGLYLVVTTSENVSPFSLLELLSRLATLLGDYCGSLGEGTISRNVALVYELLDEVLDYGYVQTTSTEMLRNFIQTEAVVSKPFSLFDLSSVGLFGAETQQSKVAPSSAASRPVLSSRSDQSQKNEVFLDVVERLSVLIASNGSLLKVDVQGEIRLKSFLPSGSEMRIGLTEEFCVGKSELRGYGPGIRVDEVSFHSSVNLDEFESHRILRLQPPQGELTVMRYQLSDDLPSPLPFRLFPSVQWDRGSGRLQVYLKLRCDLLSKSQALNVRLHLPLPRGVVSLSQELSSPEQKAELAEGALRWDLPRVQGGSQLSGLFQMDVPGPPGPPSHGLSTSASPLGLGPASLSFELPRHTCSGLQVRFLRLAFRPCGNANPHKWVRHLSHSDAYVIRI
UniProt Q9NYG5, whole entry, looked up: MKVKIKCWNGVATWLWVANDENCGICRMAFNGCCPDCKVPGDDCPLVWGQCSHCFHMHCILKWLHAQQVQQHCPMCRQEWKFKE
UniProt Q92685: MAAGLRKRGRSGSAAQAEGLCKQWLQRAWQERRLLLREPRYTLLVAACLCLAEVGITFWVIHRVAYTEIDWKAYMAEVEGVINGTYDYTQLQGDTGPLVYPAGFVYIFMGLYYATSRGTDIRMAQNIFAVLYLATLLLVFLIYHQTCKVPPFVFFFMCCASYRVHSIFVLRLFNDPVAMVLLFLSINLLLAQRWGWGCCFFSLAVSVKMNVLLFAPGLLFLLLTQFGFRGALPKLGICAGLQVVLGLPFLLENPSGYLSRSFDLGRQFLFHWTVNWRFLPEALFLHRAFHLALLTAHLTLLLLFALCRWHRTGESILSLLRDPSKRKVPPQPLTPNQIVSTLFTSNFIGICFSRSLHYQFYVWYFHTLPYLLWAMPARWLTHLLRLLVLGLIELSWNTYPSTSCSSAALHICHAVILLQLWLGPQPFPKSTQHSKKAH
UniProt Q9H8T0: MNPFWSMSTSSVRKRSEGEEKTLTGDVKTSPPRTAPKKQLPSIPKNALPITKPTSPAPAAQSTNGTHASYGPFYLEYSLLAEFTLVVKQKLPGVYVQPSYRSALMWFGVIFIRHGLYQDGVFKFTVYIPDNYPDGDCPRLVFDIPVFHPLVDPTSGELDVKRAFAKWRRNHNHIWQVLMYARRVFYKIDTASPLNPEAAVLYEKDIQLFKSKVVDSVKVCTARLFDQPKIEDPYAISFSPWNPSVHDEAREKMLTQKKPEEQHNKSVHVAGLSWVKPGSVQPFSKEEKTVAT

The text below walks through data of the supplement of paper PMC10849652.

Compound in the first test: CCn1cc(-c2ccnc3[nH]c(-c4cccc(CN(C)C)c4)cc23)c(-c2ccc(NC(=O)N(C)C)cc2)n1
Nature of the test: log2 fold change, soluble protein after heating vs DMSO (PISA); higher = thermal stabilisation; K562 lysate, 10 uM; active = over 0.2 and 3.5 SD of the protein, either way, in both replicates (recomputed). Put shortly:
(§1)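 Dounce homogenisation of K562 pellets in PBS pH 7.4 with 1 mM MgCl2 produced a crude extract, used at 1 mg/mL protein. Exposure to 10 μM compound lasted 30 min, and aliquots were then heated for 3 min across 48°C-58°C, pooled and brought to 0.5% NP-40 at 4°C. The supernatant after 21,000xg for 90 min was quantified by TMTpro 16plex LC-MS/MS with channel sums equalised. Duplicate values are given as log-two fold change in thermal stability relative to solvent controls.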
Consider ALAS1 (UniProt P13196), for which the log2 fold change was inactive: 0.026.

For AMBRA1 isoform 5 (UniProt Q9C0C7), the log2 fold change was inactive: -0.086.

Regarding ALG11 (UniProt Q2TAA5), the log2 fold change is inactive: -0.071.

Consider ANKRD29 (UniProt Q8N6D5), for which the log2 fold change is inactive: -0.22.

Regarding ANKRD30A (UniProt Q9BXX3), the log2 fold change is inactive: 0.262.

In the case of ANKRD40 (UniProt Q6AI12), the log2 fold change was inactive: 0.094.

As for ANAPC16 (UniProt Q96DE5), the log2 fold change was inactive: 0.005.

Regarding ANKRD44 isoform 2 (UniProt Q8N8A2), the log2 fold change was active: -1.9.

Consider ANGPTL4 (UniProt M0R3A2), for which the log2 fold change is inactive: 0.02.

For the target AP2S1 (UniProt M0QZ21), the log2 fold change is inactive: -0.167.

Consider ANKHD1 isoform 2 (UniProt Q8IWZ3), for which the log2 fold change is inactive: 0.077.

As to ANKRD50 (UniProt Q9ULJ7), the log2 fold change is inactive: -0.171.

Regarding AP4M1 (UniProt O00189), the log2 fold change is inactive: 0.224.

As to AMOTL1 (UniProt Q8IY63), the log2 fold change was inactive: -0.077.

Take ANAPC11 (UniProt Q9NYG5): the log2 fold change is inactive: 0.392.

As for ANKLE2 (UniProt Q86XL3), the log2 fold change is inactive: 0.01.

As for ANKRD16 (UniProt Q6P6B7), the log2 fold change was inactive: 0.082.

Turning to AP3M2 (UniProt P53677), the log2 fold change was inactive: 0.003.

With ANKS3 (UniProt Q6ZW76), the log2 fold change is inactive: 0.039.

As for ALOX12B (UniProt O75342), the log2 fold change was inactive: 0.179.

For ANP32E isoform 3 (UniProt Q9BTT0), the log2 fold change was active: -0.724.

Consider ALG12 (UniProt Q9BV10), for which the log2 fold change is inactive: 0.072.

For the target AP3D1 isoform 2 (UniProt O14617), the log2 fold change was inactive: -0.231.

For ALDH3A1 (UniProt P30838), the log2 fold change is inactive: -0.618.

Turning to ALDOA (UniProt H3BPS8), the log2 fold change is inactive: 0.03.

Consider ALG3 (UniProt Q92685), for which the log2 fold change was inactive: -0.371.

On to ANK2 (UniProt Q01484), for which the log2 fold change was inactive: -0.001.

Compound in another test: CN1CCC(CNc2ccc3ncc(-c4cccc(OC(F)(F)F)c4)n3n2)CC1
The description is as above. Put shortly: as §1
ALAS1 (UniProt P13196): the log2 fold change is inactive: 0.064.

Regarding AMBRA1 isoform 5 (UniProt Q9C0C7), the log2 fold change is inactive: 0.048.

ALG11 (UniProt Q2TAA5): the log2 fold change was inactive: 0.041.

Take ANKRD29 (UniProt Q8N6D5): the log2 fold change is inactive: 0.145.

In the case of ANKRD30A (UniProt Q9BXX3), the log2 fold change is inactive: 0.891.

On to ANKRD40 (UniProt Q6AI12), for which the log2 fold change is inactive: -0.075.

Take ANAPC16 (UniProt Q96DE5): the log2 fold change was inactive: -0.134.

ANKRD44 isoform 2 (UniProt Q8N8A2): the log2 fold change is inactive: 0.616.

Turning to ANGPTL4 (UniProt M0R3A2), the log2 fold change was inactive: -0.205.

AP2S1 (UniProt M0QZ21): the log2 fold change is inactive: -0.276.

Take ANKHD1 isoform 2 (UniProt Q8IWZ3): the log2 fold change is inactive: -0.083.

Turning to ANKRD50 (UniProt Q9ULJ7), the log2 fold change is inactive: 0.158.

AP4M1 (UniProt O00189): the log2 fold change was inactive: -0.005.

On to AMOTL1 (UniProt Q8IY63), for which the log2 fold change is inactive: -0.025.

Consider ANAPC11 (UniProt Q9NYG5), for which the log2 fold change is inactive: -0.398.

Turning to ANKLE2 (UniProt Q86XL3), the log2 fold change is inactive: -0.032.

In the case of ANKRD16 (UniProt Q6P6B7), the log2 fold change was inactive: -0.139.

Turning to AP3M2 (UniProt P53677), the log2 fold change is inactive: -0.028.

Take ANKS3 (UniProt Q6ZW76): the log2 fold change was inactive: -0.013.

In the case of ALOX12B (UniProt O75342), the log2 fold change was inactive: 0.145.

As to ANP32E isoform 3 (UniProt Q9BTT0), the log2 fold change was inactive: 0.468.

In the case of ALG12 (UniProt Q9BV10), the log2 fold change was inactive: 0.069.

As to AP3D1 isoform 2 (UniProt O14617), the log2 fold change was inactive: 0.058.

Consider ALDH3A1 (UniProt P30838), for which the log2 fold change was inactive: 0.216.

As to ALDOA (UniProt H3BPS8), the log2 fold change is inactive: 0.08.

On to ALG3 (UniProt Q92685), for which the log2 fold change was inactive: 0.06.

For ANK2 (UniProt Q01484), the log2 fold change is inactive: -0.075.

Compound in another test: CN1CCN(CCOc2cc(OC3CCOCC3)c3c(Nc4c(Cl)ccc5c4OCO5)ncnc3c2)CC1 [saracatinib]
Described as above. Put shortly: as §1
With ALAS1 (UniProt P13196), the log2 fold change was inactive: -0.141.

As for AMBRA1 isoform 5 (UniProt Q9C0C7), the log2 fold change is inactive: -0.06.

As to ANKRD31 (UniProt Q8N7Z5), the log2 fold change was inactive: 0.026.

ALG11 (UniProt Q2TAA5): the log2 fold change is inactive: -0.024.

As for ANKRD29 (UniProt Q8N6D5), the log2 fold change is inactive: 0.059.

In the case of ANKRD30A (UniProt Q9BXX3), the log2 fold change is inactive: 0.072.

As for ANKRD40 (UniProt Q6AI12), the log2 fold change is inactive: -0.101.

As to ANAPC16 (UniProt Q96DE5), the log2 fold change is inactive: 0.109.

Turning to ANXA6 (UniProt E5RK69), the log2 fold change was inactive: -0.025.

As for AKTIP isoform 2 (UniProt Q9H8T0), the log2 fold change was inactive: 0.029.

ANKHD1 isoform 2 (UniProt Q8IWZ3): the log2 fold change is inactive: 0.002.

ANKHD1 (UniProt D6RHC4): the log2 fold change is inactive: 0.

AP4M1 (UniProt O00189): the log2 fold change was inactive: -0.043.

AMOTL1 (UniProt Q8IY63): the log2 fold change is inactive: -0.188.

For the target ALDH9A1 (UniProt P49189), the log2 fold change was inactive: -0.067.

On to ANAPC11 (UniProt Q9NYG5), for which the log2 fold change is inactive: 0.115.

On to ANKLE2 (UniProt Q86XL3), for which the log2 fold change is inactive: 0.008.

In the case of ANKRD16 (UniProt Q6P6B7), the log2 fold change is inactive: -0.039.

Regarding AP3M2 (UniProt P53677), the log2 fold change is inactive: 0.004.

ANKS3 (UniProt Q6ZW76): the log2 fold change is inactive: -0.127.

For ALG12 (UniProt Q9BV10), the log2 fold change is inactive: 0.018.

In the case of ALDH3A1 (UniProt P30838), the log2 fold change was active: 1.2.

As to ALG3 (UniProt Q92685), the log2 fold change was inactive: 0.068.

Regarding ANK2 (UniProt Q01484), the log2 fold change is inactive: -0.019.
